PubChem BioAssay AID1259308, NCATS | 2017
Shown is a random part of about 59,000 reagents. About 1,510 of all reagents (2.6%) count as active. 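Calls use total luciferase alone and ignore viability, so some active siRNAs may act by altering cell number.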 The numbers tell different reagents against one gene apart. Not all columns of the deposit are shown. No sequences are given here.

- Test: 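Knock-downs that increase output of a recombinant reporter protein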 (primary screen)
- Cells: human HEK293 embryonic kidney cells stably expressing firefly luciferase (HEK-CMV-Luc2-Hygro)
- Reagents: single siRNA against human genes, 0.8 pmol siRNA per well
- Duration: 72 h
- Measurement: 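Luciferase light (ONE-Glo) measured on one replicate plate set and viability (CellTiter-Glo) on the other, scaled to a negative control siRNA, with robust z-scores and luciferase per cell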
- Reading the numbers: total luciferase, z-score: higher = more reporter protein produced
- Call rule: 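An siRNA counts as active if its total luciferase robust z-score exceeds 3; genes with two or more such siRNAs out of three were retested with fresh siRNAs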
- Meaning of the calls: active = raised luciferase; inactive = no rise

Target gene,reagent,"total luciferase, z-score",Outcome
DDX47,1,-1.29,inactive
DDX47,2,-1.46,inactive
DDX47,3,-0.717,inactive
OSBPL8,1,2.45,inactive
OSBPL8,2,0.478,inactive
OSBPL8,3,-0.131,inactive
WDR1,1,2.6,inactive
WDR1,2,0.875,inactive
WDR1,3,-0.588,inactive
FBXO7,1,0.62,inactive
FBXO7,2,0.108,inactive
FBXO7,3,-3.22,inactive
TBC1D27P,1,-0.477,inactive
TBC1D27P,2,3.96,active
TBC1D27P,3,-2.6,inactive
CCDC138,1,-0.357,inactive
CCDC138,2,2.83,inactive
CCDC138,3,-0.886,inactive
MTMR10,1,0.37,inactive
MTMR10,2,0.927,inactive
MTMR10,3,-1.38,inactive
FOXP4,1,-0.933,inactive
FOXP4,2,-1.61,inactive
FOXP4,3,0.193,inactive
SDC1,1,0.831,inactive
SDC1,2,0.59,inactive
SDC1,3,-1.96,inactive
EIF2S3,1,-3.01,inactive
EIF2S3,2,-2.68,inactive
EIF2S3,3,-0.953,inactive
LOC100288254,1,-0.29,inactive
LOC100288254,2,-0.299,inactive
LOC100288254,3,0.31,inactive
TP63,1,0.0775,inactive
TP63,2,2.24,inactive
TP63,3,-0.0485,inactive
SACK1C,1,-0.83,inactive
SACK1C,2,0.0441,inactive
SACK1C,3,0.083,inactive
PROCA1,1,-1.49,inactive
PROCA1,2,1.81,inactive
PROCA1,3,-0.936,inactive
LOC647264,1,0.37,inactive
LOC647264,2,-0.337,inactive
LOC647264,3,0.533,inactive
GTSF1,1,-0.496,inactive
GTSF1,2,0.76,inactive
GTSF1,3,-0.846,inactive

13 neighbouring reagents already listed, for reference:
Target gene,reagent,"total luciferase, z-score",Outcome
EIF2S3,3,-0.953,inactive
LOC100288254,1,-0.29,inactive
LOC100288254,2,-0.299,inactive
LOC100288254,3,0.31,inactive
TP63,1,0.0775,inactive
TP63,2,2.24,inactive
TP63,3,-0.0485,inactive
SACK1C,1,-0.83,inactive
SACK1C,2,0.0441,inactive
SACK1C,3,0.083,inactive
PROCA1,1,-1.49,inactive
PROCA1,2,1.81,inactive
PROCA1,3,-0.936,inactive

The listing continues:
Target gene,reagent,"total luciferase, z-score",Outcome
ARHGEF12,1,-1.22,inactive
ARHGEF12,2,-0.837,inactive
ARHGEF12,3,-0.606,inactive
TSGA13,1,-1.28,inactive
TSGA13,2,2.29,inactive
TSGA13,3,2.71,inactive
NOVA1,1,0.17,inactive
NOVA1,2,0.0606,inactive
NOVA1,3,0.00491,inactive
CAPN2,1,-0.341,inactive
CAPN2,2,0.0891,inactive
CAPN2,3,-0.326,inactive
CPS1,1,1.16,inactive
CPS1,2,-0.0256,inactive
CPS1,3,-0.375,inactive
HTR2C,1,-0.775,inactive
HTR2C,2,-0.443,inactive
HTR2C,3,2.37,inactive
PLXNC1,1,-0.611,inactive
PLXNC1,2,-0.111,inactive
PLXNC1,3,0.306,inactive
PRR23B,1,-0.0428,inactive
PRR23B,2,0.322,inactive
PRR23B,3,-0.314,inactive
SPMIP3,1,-0.569,inactive
SPMIP3,2,0.03,inactive
SPMIP3,3,-0.76,inactive
